One substance from publication PMC8027031 can be followed below.

The chains behind the UniProt entries cited, without tags or fusion partners.
UniProt Q13951: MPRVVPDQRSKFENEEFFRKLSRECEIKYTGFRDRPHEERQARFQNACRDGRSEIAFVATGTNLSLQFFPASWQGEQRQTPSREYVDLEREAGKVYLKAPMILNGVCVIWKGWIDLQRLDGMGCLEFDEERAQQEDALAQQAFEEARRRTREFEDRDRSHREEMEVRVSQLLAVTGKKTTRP

Results are given in words; binding and its absence hold for the method and conditions named. Binding seen in cells or lysates may run through a third protein. Some binding calls cover weakened binding; strength is not graded here.

This test addresses HA-CBFβ (UniProt Q13951). The experiment in a line: co-IP; HEK293 cells transfected with Flag-RUNX3, Myc-importin-α1 or Myc-importin-α7, with or without HA-CBFβ and pEGFP-G9a; the precipitating antibody is not named in the legend.

For the substance “Myc-importin-α7 (from UniProt O60684 1-536)”, the binding entry is “binds”.
